Results are given in words; binding and its absence hold for the method and conditions named. In cells and extracts the contact can be indirect. A yes stands for co-enrichment or nearness to the bait. Other partners may have been found. For some assays here: A no says only that the protein was not detected with the bait.
Legend:
[1] = biological target: T1, endogenous Arabidopsis thaliana phytocystatin 6 (AtCYT6) (Arabidopsis thaliana (endogenous in leaves and seeds)) (UniProt Q8H0X6); assay: affinity purification with mass spectrometry; CoIP of endogenous AtCYT6: polyclonal anti-AtCYT6-NTD or anti-AtCYT6-CTD antibodies cross-linked to protein G Sepharose (bait 2), seed extract in 100 mM citric acid pH 5.5, 250 mM NaCl, 1 h at 4°C; label-free quantification against empty beads
T1 sequence: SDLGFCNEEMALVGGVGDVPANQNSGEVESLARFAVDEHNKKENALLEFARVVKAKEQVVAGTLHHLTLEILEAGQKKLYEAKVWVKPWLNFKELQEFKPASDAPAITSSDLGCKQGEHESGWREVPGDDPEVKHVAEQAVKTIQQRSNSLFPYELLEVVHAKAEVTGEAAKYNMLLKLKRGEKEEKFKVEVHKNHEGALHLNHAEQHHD

Sequences of proteins named here, by UniProt entry; tags and fusion partners are left off. A change or cut given only in a name is not applied to a line headed by its entry.
UniProt Q8VYS0: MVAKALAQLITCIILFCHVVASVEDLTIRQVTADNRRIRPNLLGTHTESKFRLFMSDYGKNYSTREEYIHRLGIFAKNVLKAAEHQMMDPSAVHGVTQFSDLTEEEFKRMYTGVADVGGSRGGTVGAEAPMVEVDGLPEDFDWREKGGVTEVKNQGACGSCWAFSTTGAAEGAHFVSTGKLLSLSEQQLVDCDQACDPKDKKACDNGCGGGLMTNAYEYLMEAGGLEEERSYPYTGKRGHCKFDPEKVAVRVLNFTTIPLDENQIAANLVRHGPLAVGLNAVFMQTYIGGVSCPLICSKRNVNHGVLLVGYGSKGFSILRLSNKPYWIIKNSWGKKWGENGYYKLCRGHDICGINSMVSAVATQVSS

[2] = biological target: T2, N-terminal domain of AtCYT6 (AtCYT6-NTD, A35-D127) (Arabidopsis thaliana) (UniProt Q8H0X6); assay: affinity purification with mass spectrometry; CoIP with recombinant bait: anti-AtCYT6-NTD or anti-AtCYT6-CTD antibodies on protein G Sepharose loaded with recombinant AtCYT6-NTD or AtCYT6-CTD (bait 3), seed extract in 100 mM citric acid pH 5.5, 250 mM NaCl, 1 h at 4°C; label-free quantification against empty beads; only the target purified
T2 sequence: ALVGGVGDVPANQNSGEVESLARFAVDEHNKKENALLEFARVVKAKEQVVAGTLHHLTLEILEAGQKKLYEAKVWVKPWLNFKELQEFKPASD

[3] = biological target: T3, proAtLEGβ-C211A dead mutant (inactive proenzyme of AtLEGβ) (Arabidopsis thaliana) (UniProt Q39044); assay: affinity purification with mass spectrometry; pull-down: 2 mg VPE0 leaf lysate (100 mM MES pH 6.0, 100 mM NaCl, 250 mM sucrose, 1% Triton X-100) with His6-AtLEGβ (pre-inhibited with MMTS), His6-proAtLEGβ-C211A or lysate alone and Dynabeads for His-tag isolation, 1 h at room temperature; triplex dimethyl labelling; only the target purified
T3 sequence: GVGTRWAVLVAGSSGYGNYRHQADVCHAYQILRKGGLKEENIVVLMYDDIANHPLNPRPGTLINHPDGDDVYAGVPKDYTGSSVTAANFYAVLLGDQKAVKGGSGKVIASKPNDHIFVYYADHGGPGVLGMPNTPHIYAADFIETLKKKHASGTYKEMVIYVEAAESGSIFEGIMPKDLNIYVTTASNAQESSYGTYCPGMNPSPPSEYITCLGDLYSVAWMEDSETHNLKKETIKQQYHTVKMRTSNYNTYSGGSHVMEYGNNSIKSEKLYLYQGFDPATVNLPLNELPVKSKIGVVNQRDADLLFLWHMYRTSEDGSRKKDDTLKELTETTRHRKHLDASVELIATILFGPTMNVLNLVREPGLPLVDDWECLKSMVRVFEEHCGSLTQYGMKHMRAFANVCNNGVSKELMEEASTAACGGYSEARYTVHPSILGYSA

RD19D (papain-like cysteine protease), endogenous in A. thaliana seeds (from UniProt Q8VYS0) (enzyme)
binding [1]: binds | binding [2]: binds

B1: SAG12 (papain-like cysteine protease), endogenous in A. thaliana seeds (enzyme, UniProt Q9FJ47 26-346)
chain: RPLDNELIMQKRHIEWMTKHGRVYADVKEENNRYVVFKNNVERIEHLNSIPAGRTFKLAVNQFADLTNDEFRSMYTGFKGVSALSSQSQTKMSPFRYQNVSSGALPVSVDWRKKGAVTPIKNQGSCGCCWAFSAVAAIEGATQIKKGKLISLSEQQLVDCDTNDFGCEGGLMDTAFEHIKATGGLTTESNYPYKGEDATCNSKKTNPKATSITGYEDVPVNDEQALMKAVAHQPVSVGIEGGGFDFQFYSSGVFTGECTTYLDHAVTAIGYGESTNGSKYWIIKNSWGTKWGESGYMRIQKDVKDKQGLCGLAMKASYPTI
binding [1]: binds | binding [2]: binds

B2: endogenous Arabidopsis thaliana phytocystatin 6 (AtCYT6) (protein, UniProt Q8H0X6 25-234)
chain: SDLGFCNEEMALVGGVGDVPANQNSGEVESLARFAVDEHNKKENALLEFARVVKAKEQVVAGTLHHLTLEILEAGQKKLYEAKVWVKPWLNFKELQEFKPASDAPAITSSDLGCKQGEHESGWREVPGDDPEVKHVAEQAVKTIQQRSNSLFPYELLEVVHAKAEVTGEAAKYNMLLKLKRGEKEEKFKVEVHKNHEGALHLNHAEQHHD
binding [3]: no binding
